{"source": "PubChem BioAssay AID192", "about": "(DTP/NCI, 2004)", "test_system": "BDF1 mice, B16 melanoma ip, median survival T/C", "experiment": "NCI In Vivo Anticancer Drug Screen. Data for tumor model B16 Melanoma (intraperitoneal) in B6D2F1 (BDF1) mice", "details": "T/C endpoint: median survival time, higher T/C = longer survival", "experimental": "The antitumor activity of compounds was measured in mice bearing transplantable tumors. Survival or tumor size were measured and the results are expressed as the measurement made in the treated group (T) divided by the measurement made in the vehicle treated control group (C). The tumor model used in this assay is B16 Melanoma (intraperitoneal) in B6D2F1 (BDF1) mice", "key": {"[1]": {"details": "dose: 25.0 mg/kg/injection, schedule: Q01DX009 (ip), vehicle: Klucel (hydroxypropylcellulose) (HPC)"}, "[2]": {"details": "dose: 200.0 mg/kg/injection, schedule: Q01DX009 (ip), vehicle: Klucel (hydroxypropylcellulose) (HPC)"}, "[3]": {"details": "dose: 50.0 mg/kg/injection, schedule: Q01DX009 (ip), vehicle: Klucel (hydroxypropylcellulose) (HPC)"}, "[4]": {"details": "dose: 100.0 mg/kg/injection, schedule: Q01DX009 (ip), vehicle: Klucel (hydroxypropylcellulose) (HPC)"}, "[5]": {"details": "dose: 400.0 mg/kg/injection, schedule: Q01DX009 (ip), vehicle: Klucel (hydroxypropylcellulose) (HPC)"}, "[6]": {"details": "dose: 12.5 mg/kg/injection, schedule: Q01DX009 (ip), vehicle: Klucel (hydroxypropylcellulose) (HPC)"}}, "note": "The list is a part of this screen's results and no random one: it is rich in T/C values a quarter to a half above the control, in often repeated tests (any T/C) and in doses without a T/C. Other doses and runs of a compound stand elsewhere. T/C gives the treated animals as a percentage of the vehicle group. Some entries give survivors of the animals treated and no T/C: the source holds a T/C of zero for them, seemingly a mark for toxic or unscored doses. Some survivor counts are full or nearly so, which does not show that the dose was tolerated: the source hardly ever lists a survival T/C far under the control, and the zero likely stands for such cases as well. Survivors were counted at the toxicity check, usually on the fifth day, unless a day is given; later deaths do not show. Schedules are NCI's codes, taken here to give the interval after Q, in days (D) or hours (H), and the number of doses after X. Some entries were tested several times; the values are given in rising order. Where survival is the endpoint, the PubChem record calls one and a half times the control and up active, and a quarter to a half above the control has no call in these data; cut-offs in other NCI protocols can differ. Some T/C values are followed by the survivors on the day toxicity was checked, most often the fifth; where none is given, no animal had died by that day.", "data": [{"compound": "O=C1C=CC(=O)O1", "note": "(tested in a mixture with another compound)", "values": [{"measurement": "T/C", "setting": "[1]", "result": "130 % of control"}, {"measurement": "T/C", "setting": "dose: 25.0 mg/kg/injection, schedule: Q01DX009 (ip), vehicle: other", "result": "135 % of control"}, {"measurement": "T/C", "setting": "dose: 25.0 mg/kg/injection, schedule: Q04DX003 (ip), vehicle: saline", "result": "136 % of control"}, {"measurement": "T/C", "setting": "dose: 37.5 mg/kg/injection, schedule: Q04DX003 (ip), vehicle: Klucel (hydroxypropylcellulose) (HPC)", "result": "137 % of control"}, {"measurement": "T/C", "setting": "dose: 50.0 mg/kg/injection, schedule: Q01DX009 (ip), vehicle: other", "result": "126 % of control"}, {"measurement": "T/C", "setting": "dose: 50.0 mg/kg/injection, schedule: Q04DX003 (ip), vehicle: saline", "result": "141 % of control"}, {"measurement": "T/C", "setting": "dose: 75.0 mg/kg/injection, schedule: Q04DX003 (ip), vehicle: Klucel (hydroxypropylcellulose) (HPC)", "result": "125 % of control"}, {"measurement": "T/C", "setting": "dose: 100.0 mg/kg/injection, schedule: Q01DX009 (ip), vehicle: other", "result": "135 % of control"}, {"measurement": "T/C", "setting": "dose: 100.0 mg/kg/injection, schedule: Q04DX003 (ip), vehicle: saline", "result": "147 % of control"}, {"measurement": "T/C", "setting": "[2]", "result": "132 % of control"}, {"measurement": "T/C", "setting": "dose: 400.0 mg/kg/injection, schedule: Q04DX003 (ip), vehicle: saline", "result": "148 % of control [9 of 10 alive]"}]}, {"compound": "COc1ccc(C(N)=O)cc1N=NN(C)C", "values": [{"measurement": "survivor count", "setting": "[3]", "result": "10 of 10"}, {"measurement": "survivor count", "setting": "[4]", "result": "8 of 10 and 10 of 10"}]}, {"compound": "CN(C)CCCNC(=O)Nc1ccccc1", "values": [{"measurement": "survivor count", "setting": "[5]", "result": "0 of 10"}]}, {"compound": "Cc1cn(C2CC(F)C(CO)O2)c(=O)[nH]c1=O", "note": "(stereo unspecified)", "values": [{"measurement": "T/C", "setting": "dose: 200.0 mg/kg/injection, schedule: Q01DX009 (ip), vehicle: saline", "result": "132 % of control"}]}, {"compound": "C[C@]12CC[C@@H]3c4ccc(O)cc4CC[C@H]3[C@@H]1C[C@@H](O)[C@@H]2O", "values": [{"measurement": "survivor count", "setting": "[5]", "result": "6 of 6"}]}, {"compound": "C/C(=C\\c1ccccc1Cl)[N+](=O)[O-]", "values": [{"measurement": "survivor count", "setting": "dose: 150.0 mg/kg/injection, schedule: Q01DX009 (ip), vehicle: Klucel (hydroxypropylcellulose) (HPC)", "result": "7 of 10"}]}, {"compound": "CC1C=CCC(C)(C)C1", "note": "(stereo unspecified)", "values": [{"measurement": "survivor count", "setting": "dose: 200.0 mg/kg/injection, schedule: Q01DX009 (ip), vehicle: other", "result": "10 of 10"}]}, {"compound": "Cc1cc(Cl)ccc1NC(=O)COc1ccc(Cl)cc1", "values": [{"measurement": "survivor count", "setting": "[3]", "result": "10 of 10"}, {"measurement": "survivor count", "setting": "[4]", "result": "10 of 10"}, {"measurement": "survivor count", "setting": "[2]", "result": "10 of 10"}]}, {"compound": "Cc1ccc(CNc2cccc([N+](=O)[O-])c2)cc1", "values": [{"measurement": "survivor count", "setting": "[5]", "result": "8 of 10"}]}, {"compound": "Cc1cc(C)nc(NS(=O)(=O)c2ccc(N=Nc3nc4[nH]c(N)nc(=S)c4[nH]3)cc2)n1", "values": [{"measurement": "survivor count", "setting": "dose: 3.12 mg/kg/injection, schedule: Q01DX009 (ip), vehicle: Klucel (hydroxypropylcellulose) (HPC)", "result": "10 of 10"}, {"measurement": "survivor count", "setting": "dose: 6.25 mg/kg/injection, schedule: Q01DX009 (ip), vehicle: Klucel (hydroxypropylcellulose) (HPC)", "result": "9 of 10"}, {"measurement": "survivor count", "setting": "[6]", "result": "10 of 10"}, {"measurement": "survivor count", "setting": "[1]", "result": "9 of 10"}, {"measurement": "survivor count", "setting": "[3]", "result": "10 of 10"}, {"measurement": "survivor count", "setting": "[4]", "result": "10 of 10"}]}, {"compound": "NCCN", "values": [{"measurement": "survivor count", "setting": "dose: 600.0 mg/kg/injection, schedule: Q01DX009 (ip), vehicle: saline", "result": "4 of 6"}]}, {"compound": "C=CC(=O)N1CN(C(=O)C=C)CN(C(=O)C=C)C1", "values": [{"measurement": "T/C", "setting": "dose: 6.25 mg/kg/injection, schedule: Q01DX009 (ip), vehicle: saline with Tween-80", "result": "131 % of control"}, {"measurement": "T/C", "setting": "dose: 12.5 mg/kg/injection, schedule: Q01DX009 (ip), vehicle: saline with Tween-80", "result": "126 % of control [9 of 10 alive]"}, {"measurement": "survivor count", "setting": "dose: 25.0 mg/kg/injection, schedule: Q01DX009 (ip), vehicle: saline with Tween-80", "result": "0 of 10"}]}, {"compound": "COc1cc(C(=O)c2cc3c(cc2C)OCO3)cc(OC)c1OC", "values": [{"measurement": "T/C", "setting": "[4]", "result": "130 % of control"}, {"measurement": "survivor count", "setting": "[2]", "result": "5 of 10"}]}, {"compound": "CCC[CH2][Ge]([Cl])([Cl])[CH2]CCC", "values": [{"measurement": "survivor count", "setting": "[3]", "result": "10 of 10"}]}, {"compound": "Cc1ccc(NC(=O)Nc2cccc(C(F)(F)F)c2)cc1NC(=O)Nc1cccc(C(F)(F)F)c1", "values": [{"measurement": "survivor count", "setting": "dose: 100.0 mg/kg/injection, schedule: Q01DX009 (ip), vehicle: saline with Tween-80", "result": "10 of 10"}, {"measurement": "survivor count", "setting": "dose: 200.0 mg/kg/injection, schedule: Q01DX009 (ip), vehicle: saline with Tween-80", "result": "10 of 10"}, {"measurement": "survivor count", "setting": "dose: 400.0 mg/kg/injection, schedule: Q01DX009 (ip), vehicle: saline with Tween-80", "result": "10 of 10"}]}, {"compound": "O=C(CN1CC1)NCCCCCCCCNC(=O)CN1CC1", "values": [{"measurement": "T/C", "setting": "[6]", "result": "138 % of control"}, {"measurement": "survivor count", "setting": "[3]", "result": "10 of 10"}, {"measurement": "survivor count", "setting": "[4]", "result": "1 of 10"}]}]}
